Some results were stated once for a whole list of compounds, not compound by compound. Starred links: 1 amine or outer side, 2 acyl side, 3 side chain; linkers in the order of their positions; H or OH if unused. Positions of bridges follow the written chain, without caps; N, C: chain ends. Non-standard residues stand in square brackets, D forms with d. Residues, ends and D or L forms follow the SMILES beside them. Bip(4'-COOH) = N[C@@H](Cc1ccc(-c2ccc(C(=O)O)cc2)cc1)C(=O)O; Bip(4'-NHAc) = CC(=O)Nc1ccc(-c2ccc(C[C@H](N)C(=O)O)cc2)cc1; Phe(3-CH2NH2) = O=C([C@H](Cc1cccc(CN[*:3])c1)N[*:1])[*:2]; Ala(morpholin-4-yl) = N[C@@H](CN1CCOCC1)C(=O)O; Bip = N[C@@H](Cc1ccc(-c2ccccc2)cc1)C(=O)O; Morpholine(3S-CO) = O=C(O)[C@@H]1COCCN1; Val(3-OH) = CC(C)(O)[C@H](N)C(=O)O; 2Pal = N[C@@H](Cc1ccccn1)C(=O)O; 3Pal = N[C@@H](Cc1cccnc1)C(=O)O; Pip = O=C(O)[C@@H]1CCCCN1; Nle = CCCC[C@H](N)C(=O)O; Aze = O=C(O)[C@@H]1CCN1; Sar = CNCC(=O)O
The compounds below were run against TNFα (Homo sapiens, UniProt P01375) (assay: TNF-Induced HEK-Blue Assay). Settings: summary statement for all examples; read-out: IC50 values measured in the TNF induced HEK-Blue assay.
Format: cell-based

By UniProt entry, the sequences of proteins in these tests, tags left out. Residues count along the entry.
UniProt P01375, 77-233 limits assumed: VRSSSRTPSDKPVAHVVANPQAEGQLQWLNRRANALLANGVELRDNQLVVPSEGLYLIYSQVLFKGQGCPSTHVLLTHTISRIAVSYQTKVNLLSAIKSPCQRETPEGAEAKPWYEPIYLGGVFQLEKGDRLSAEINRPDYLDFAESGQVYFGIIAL

IC50, ≤ 25 µM:
CCCC[C@@H]1NC(=O)[C@@H]2CCCN2C(=O)[C@H](C(C)C)NC(=O)[C@@H](CCCNC(=N)N)NC(=O)[C@H](CC(=O)O)NC(=O)[C@H](Cc2ccc(O)cc2)NC(=O)CN(C)C(=O)[C@H](Cc2ccc(-c3ccccc3)cc2)NC(=O)[C@H](Cc2ccc(-c3ccccc3)cc2)NC(=O)[C@H](CN2CCOCC2)NC(=O)CSC[C@@H](C(=O)NCC(N)=O)NC(=O)[C@H](CC(C)C)NC(=O)[C@H](Cc2ccc(O)cc2)NC1=O [Example 163] ({CH2CO}-[Ala(morpholin-4-yl)][Bip][Bip][Sar]YD[dR]VP[Nle]YLCG-NH2; thioether N-13)
CC(=O)Nc1ccc(-c2ccc(C[C@@H]3NC(=O)[C@H](Cc4ccc(-c5ccc(C(=O)O)cc5)cc4)NC(=O)[C@H](CN4CCOCC4)NC(=O)CSC[C@@H](C(=O)NCC(N)=O)NC(=O)[C@H](CC(C)C)NC(=O)[C@H](Cc4ccc(O)cc4)NC(=O)[C@H](C(C)C)NC(=O)[C@@H]4CCCN4C(=O)[C@H](C(C)C)NC(=O)[C@@H](CCCNC(=N)N)NC(=O)[C@H](CC(=O)O)NC(=O)[C@H](Cc4ccc(O)cc4)NC(=O)CN(C)C3=O)cc2)cc1 [Example 164] ({CH2CO}-[Ala(morpholin-4-yl)][Bip(4'-COOH)][Bip(4'-NHAc)][Sar]YD[dR]VPVYLCG-NH2; thioether N-13)
CC(=O)Nc1ccc(-c2ccc(C[C@@H]3NC(=O)[C@H](Cc4ccc(-c5ccc(C(=O)O)cc5)cc4)NC(=O)[C@H](CN4CCOCC4)NC(=O)CSC[C@@H](C(=O)NCC(N)=O)NC(=O)[C@H](CC(C)C)NC(=O)[C@H](CCCNC(=N)N)NC(=O)[C@H](C(C)C)NC(=O)[C@@H]4CCCN4C(=O)[C@H](C(C)C)NC(=O)[C@@H](CCCNC(=N)N)NC(=O)[C@H](CC(=O)O)NC(=O)[C@@H]4CCCN4C(=O)CN(C)C3=O)cc2)cc1 [Example 165] ({CH2CO}-[Ala(morpholin-4-yl)][Bip(4'-COOH)][Bip(4'-NHAc)][Sar]PD[dR]VPVRLCG-NH2; thioether N-13)
CC(=O)Nc1ccc(-c2ccc(C[C@@H]3NC(=O)[C@H](Cc4ccc(-c5ccc(C(=O)O)cc5)cc4)NC(=O)[C@H](CN4CCOCC4)NC(=O)CSC[C@@H](C(=O)NCC(N)=O)NC(=O)[C@H](CC(C)C)NC(=O)[C@H](Cc4ccc(O)cc4)NC(=O)[C@H](C(C)C)NC(=O)[C@@H]4CCN4C(=O)[C@H](C(C)C)NC(=O)[C@@H](CCCNC(=N)N)NC(=O)[C@H](CC(=O)O)NC(=O)[C@H](Cc4ccc(O)cc4)NC(=O)CN(C)C3=O)cc2)cc1 [Example 166] ({CH2CO}-[Ala(morpholin-4-yl)][Bip(4'-COOH)][Bip(4'-NHAc)][Sar]YD[dR]V[Aze]VYLCG-NH2; thioether N-13)
CC(=O)Nc1ccc(-c2ccc(C[C@@H]3NC(=O)[C@H](Cc4ccc(-c5ccc(C(=O)O)cc5)cc4)NC(=O)[C@H](CN4CCOCC4)NC(=O)CSC[C@@H](C(=O)NCC(N)=O)NC(=O)[C@H](CC(C)C)NC(=O)[C@H](Cc4ccc(O)cc4)NC(=O)[C@H](C(C)C)NC(=O)[C@@H]4COCCN4C(=O)[C@H](C(C)C)NC(=O)[C@@H](CCCNC(=N)N)NC(=O)[C@H](CC(=O)O)NC(=O)[C@H](Cc4ccc(O)cc4)NC(=O)CN(C)C3=O)cc2)cc1 [Example 167] ({CH2CO}-[Ala(morpholin-4-yl)][Bip(4'-COOH)][Bip(4'-NHAc)][Sar]YD[dR]V[Morpholine(3S-CO)]VYLCG-NH2; thioether N-13)
CC(=O)Nc1ccc(-c2ccc(C[C@@H]3NC(=O)[C@H](Cc4ccc(-c5ccc(C(=O)O)cc5)cc4)NC(=O)[C@H](CN4CCOCC4)NC(=O)CSC[C@@H](C(=O)NCC(N)=O)NC(=O)[C@H](CC(C)C)NC(=O)[C@H](Cc4ccc(O)cc4)NC(=O)[C@H](C(C)C)NC(=O)[C@@H]4CCCCN4C(=O)[C@H](C(C)C)NC(=O)[C@@H](CCCNC(=N)N)NC(=O)[C@H](CC(=O)O)NC(=O)[C@H](Cc4ccc(O)cc4)NC(=O)CN(C)C3=O)cc2)cc1 [Example 168] ({CH2CO}-[Ala(morpholin-4-yl)][Bip(4'-COOH)][Bip(4'-NHAc)][Sar]YD[dR]V[Pip]VYLCG-NH2; thioether N-13)
CC(=O)Nc1ccc(-c2ccc(C[C@@H]3NC(=O)[C@H](Cc4ccc(-c5ccccc5)cc4)NC(=O)[C@H](CN4CCOCC4)NC(=O)CSC[C@@H](C(=O)N[C@@H](CCCCN)C(=O)O)NC(=O)[C@H](CC(C)C)NC(=O)[C@H](CCCNC(=N)N)NC(=O)[C@H](C(C)C)NC(=O)[C@@H]4CCCN4C(=O)[C@H](C(C)C)NC(=O)[C@@H](CCCNC(=N)N)NC(=O)[C@H](CC(=O)O)NC(=O)[C@@H]4CCCN4C(=O)CN(C)C3=O)cc2)cc1 [Example 169] ({CH2CO}-[Ala(morpholin-4-yl)][Bip][Bip(4'-NHAc)][Sar]PD[dR]VPVRLCK-OH; thioether N-13)
CC(=O)Nc1ccc(-c2ccc(C[C@@H]3NC(=O)[C@H](Cc4ccc(-c5ccccc5)cc4)NC(=O)[C@H](CN4CCOCC4)NC(=O)CSC[C@@H](C(=O)NCC(N)=O)NC(=O)[C@H](CC(C)C)NC(=O)[C@H](Cc4ccc(O)cc4)NC(=O)[C@H](C(C)C)NC(=O)[C@@H]4CCN4C(=O)[C@H](C(C)C)NC(=O)[C@@H](CCCNC(=N)N)NC(=O)[C@H](CC(=O)O)NC(=O)[C@H](Cc4ccccn4)NC(=O)CN(C)C3=O)cc2)cc1 [Example 170] ({CH2CO}-[Ala(morpholin-4-yl)][Bip][Bip(4'-NHAc)][Sar][2Pal]D[dR]V[Aze]VYLCG-NH2; thioether N-13)
CC(=O)Nc1ccc(-c2ccc(C[C@@H]3NC(=O)[C@H](Cc4ccc(-c5ccccc5)cc4)NC(=O)[C@H](CN4CCOCC4)NC(=O)CSC[C@@H](C(=O)NCC(N)=O)NC(=O)[C@H](CC(C)C)NC(=O)[C@H](Cc4cccc(CN)c4)NC(=O)[C@H](C(C)C)NC(=O)[C@@H]4CCCN4C(=O)[C@H](C(C)C)NC(=O)[C@@H](CCCNC(=N)N)NC(=O)[C@H](CC(=O)O)NC(=O)[C@H](Cc4ccccn4)NC(=O)CN(C)C3=O)cc2)cc1 [Example 171] ({CH2CO}-[Ala(morpholin-4-yl)][Bip][Bip(4'-NHAc)][Sar][2Pal]D[dR]VPV[Phe(3-CH2NH2)]LCG-NH2; thioether N-13)
CC(=O)Nc1ccc(-c2ccc(C[C@@H]3NC(=O)[C@H](Cc4ccc(-c5ccccc5)cc4)NC(=O)[C@H](CN4CCOCC4)NC(=O)CSC[C@@H](C(=O)NCC(N)=O)NC(=O)[C@H](CC(C)C)NC(=O)[C@H](Cc4ccccn4)NC(=O)[C@H](C(C)C)NC(=O)[C@@H]4CCCN4C(=O)[C@H](C(C)C)NC(=O)[C@@H](CCCNC(=N)N)NC(=O)[C@H](CC(=O)O)NC(=O)[C@H](Cc4ccccn4)NC(=O)CN(C)C3=O)cc2)cc1 [Example 172] ({CH2CO}-[Ala(morpholin-4-yl)][Bip][Bip(4'-NHAc)][Sar][2Pal]D[dR]VPV[2Pal]LCG-NH2; thioether N-13)
CC(=O)Nc1ccc(-c2ccc(C[C@@H]3NC(=O)[C@H](Cc4ccc(-c5ccccc5)cc4)NC(=O)[C@H](CN4CCOCC4)NC(=O)CSC[C@@H](C(=O)NCC(N)=O)NC(=O)[C@H](CC(C)C)NC(=O)[C@H](Cc4ccc(O)cc4)NC(=O)[C@H](C(C)C)NC(=O)[C@@H]4CCCN4C(=O)[C@H](CC(N)=O)NC(=O)[C@@H](CCCNC(=N)N)NC(=O)[C@H](CC(=O)O)NC(=O)[C@H](Cc4ccccn4)NC(=O)CN(C)C3=O)cc2)cc1 [Example 173] ({CH2CO}-[Ala(morpholin-4-yl)][Bip][Bip(4'-NHAc)][Sar][2Pal]D[dR]NPVYLCG-NH2; thioether N-13)
CC(=O)Nc1ccc(-c2ccc(C[C@@H]3NC(=O)[C@H](Cc4ccc(-c5ccccc5)cc4)NC(=O)[C@H](CN4CCOCC4)NC(=O)CSC[C@@H](C(=O)NCC(N)=O)NC(=O)[C@H](CC(C)C)NC(=O)[C@H](Cc4ccccc4)NC(=O)[C@H](C(C)C)NC(=O)[C@@H]4CCCN4C(=O)[C@H](C(C)C)NC(=O)[C@@H](CCCNC(=N)N)NC(=O)[C@H](CC(=O)O)NC(=O)[C@H](Cc4ccccc4)NC(=O)CN(C)C3=O)cc2)cc1 [Example 174] ({CH2CO}-[Ala(morpholin-4-yl)][Bip][Bip(4'-NHAc)][Sar]FD[dR]VPVFLCG-NH2; thioether N-13)
CC(=O)Nc1ccc(-c2ccc(C[C@@H]3NC(=O)[C@H](Cc4ccc(-c5ccccc5)cc4)NC(=O)[C@H](C(C)(C)O)NC(=O)CSC[C@@H](C(=O)NCC(N)=O)NC(=O)[C@H](CC(C)C)NC(=O)[C@H](Cc4ccc(O)cc4)NC(=O)[C@H](C(C)C)NC(=O)[C@@H]4CCCN4C(=O)[C@H](C(C)C)NC(=O)[C@@H](CCCNC(=N)N)NC(=O)[C@H](CC(=O)O)NC(=O)[C@H](Cc4ccccn4)NC(=O)CN(C)C3=O)cc2)cc1 [Example 175] ({CH2CO}-[Val(3-OH)][Bip][Bip(4'-NHAc)][Sar][2Pal]D[dR]VPVYLCG-NH2; thioether N-13)
CC(=O)Nc1ccc(-c2ccc(C[C@@H]3NC(=O)[C@H](Cc4ccc(-c5ccccc5)cc4)NC(=O)[C@H](CN4CCOCC4)NC(=O)CSC[C@@H](C(=O)NCC(N)=O)NC(=O)[C@H](CC(C)C)NC(=O)[C@H](Cc4cccnc4)NC(=O)[C@H](C(C)C)NC(=O)[C@@H]4CCCN4C(=O)[C@H](C(C)C)NC(=O)[C@@H](CCCNC(=N)N)NC(=O)[C@H](CC(=O)O)NC(=O)[C@H](Cc4ccccn4)NC(=O)CN(C)C3=O)cc2)cc1 [Example 176] ({CH2CO}-[Ala(morpholin-4-yl)][Bip][Bip(4'-NHAc)][Sar][2Pal]D[dR]VPV[3Pal]LCG-NH2; thioether N-13)
CC(=O)Nc1ccc(-c2ccc(C[C@@H]3NC(=O)[C@H](Cc4ccc(-c5ccccc5)cc4)NC(=O)[C@H](CN4CCOCC4)NC(=O)CSC[C@@H](C(=O)NCC(N)=O)NC(=O)[C@H](CC(C)C)NC(=O)[C@H](Cc4ccc(O)cc4)NC(=O)[C@H](C(C)C)NC(=O)[C@@H]4CCCN4C(=O)[C@H](Cc4ccc(O)cc4)NC(=O)[C@@H](CCCNC(=N)N)NC(=O)[C@H](CC(=O)O)NC(=O)[C@H](Cc4ccccn4)NC(=O)CN(C)C3=O)cc2)cc1 [Example 177] ({CH2CO}-[Ala(morpholin-4-yl)][Bip][Bip(4'-NHAc)][Sar][2Pal]D[dR]YPVYLCG-NH2; thioether N-13)
